# Results of single-concentration screens

Each number is a percent effect as filed. How 0% and 100% were set is not recorded. Most values in the screen are low, and negative values occur. Compounds were drawn at random from those tested, without regard to their results. Two or more numbers in one place are separate tests of the same structure; such repeats can differ widely.

A: 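Whole-cell growth test on Mycobacterium tuberculosis, read after 4 days in a medium based on cholesterol and the lipid DPPC; the read-out is not stated. Compounds at 50 µM. Higher reads as more growth inhibition (inferred: compounds with an IC50 in retests scored well above the rest). Size under these conditions: about 69,000 compounds, about 370 of them at 50% or above in at least one test.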
B: 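Whole-cell growth test on Mycobacterium tuberculosis, read after 3 days in glucose-containing 7H9 medium; the read-out is not stated. Tested at 50 µM. The record gives no direction; compounds that gave an IC50 in retests scored well above the rest, so higher reads as more growth inhibition. Of about 69,000 compounds tested this way, about 760 (1.1%) reached 50% or more in at least one test.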

{"compound": "Cc1nc(C2CCCN2CC(=O)NCCOc2ccc(F)cc2)no1", "stereo": "centres unmarked", "A": -32.95, "B": -26.46}
{"compound": "CC(C)[C@H]1COC(=O)N1Cc1nnc(-c2ccccc2)o1", "A": 9.966, "B": "8.586 & 6.606"}
{"compound": "O=C1COc2cc(S(=O)(=O)NCCC3=CCCCC3)c(Br)cc2N1", "A": -16.44, "B": -25.27}
{"compound": "Cc1cncc(C(=O)N2CC[C@@]3(C[C@H](NS(C)(=O)=O)CCO3)C2)c1.O=C(O)C(F)(F)F", "A": "10.37 & -14.84", "B": -15.63}
{"compound": "O=C1C(N2CCN(c3ccc(O)cc3)CC2)CCN1C1CCOCC1", "stereo": "centres unmarked", "A": -0.1238, "B": -3.098}
{"compound": "COCCN1CCC2(CC1)CN(C(=O)c1ccco1)CCO2.O=C(O)C(F)(F)F", "A": -19.75, "B": -15.5}
{"compound": "Cn1ccc(C(=O)N2CCN(CC(O)C(C)(C)C)CC2)cc1=O", "stereo": "centres unmarked", "A": -23.5, "B": -2.4}
{"compound": "Cc1ccc(C)c2c(C)c(C(=O)NCC[S+](C)[O-])[nH]c12", "stereo": "centres unmarked", "A": 6.406, "B": 14.82}
{"compound": "O=C(N1CCCC1)N1CCC2(CC1)CN(c1cccnc1)C(=O)CO2.O=C(O)C(F)(F)F", "A": 0.319, "B": 15.13}
{"compound": "CCCC(C#N)NC(=O)c1sccc1CC", "stereo": "centres unmarked", "A": -6.646, "B": 19.14}
{"compound": "Cc1nc(CN(C)C2CCN(Cc3ccno3)C2)no1", "stereo": "centres unmarked", "A": -3.27, "B": -6.905}
{"compound": "Cc1cc(C(=O)Nc2ccc3oc(=O)n(CCN(C)C)c3c2)c(C)o1", "A": "1.104 & 12.73", "B": 32.13}
{"compound": "CC(C)N(C)S(=O)(=O)N1CCCC1C(=O)N1CCSCC1", "stereo": "centres unmarked", "A": 0.1043, "B": "-3.402 & -4.506"}
{"compound": "CCc1nccn1CCNC1CCN(c2nc3ccc(Cl)cc3s2)CC1", "A": 66.07, "B": 77.71}
{"compound": "CCN(CCn1cccn1)C(=O)CN1C(=O)OC[C@@H]1c1ccccc1", "A": "-10.64 & -3.524", "B": "1.07 & -7.623"}
{"compound": "CN1CC2(CCCN(c3cc(N4CCCCC4)ncn3)C2)OC1=O", "stereo": "centres unmarked", "A": 2.723, "B": 7.139}
{"compound": "Cn1c(CN2CCN(c3cccnc3)CC2)cc2ccccc21", "A": 18.3, "B": 22.08}
{"compound": "c1ccc2c(N3CCCCC3Cn3cncn3)ncnc2c1", "stereo": "centres unmarked", "A": 4.885, "B": -17.54}
{"compound": "O=C(O)C(F)(F)F.O=C(O)C(F)(F)F.c1cc2nc(C3CCN(CC4CC4)CC3)nn2cc1N1CCCC1", "A": -5.532, "B": 9.54}
{"compound": "CC(C)(C)NC(=O)N1CCCn2nc(C(=O)Nc3ccccc3)cc2C1", "A": -10.82, "B": "5.651 & -1.579"}
{"compound": "CC(Cn1cccn1)NCc1csc(-c2ccsc2)n1", "stereo": "centres unmarked", "A": 30.9, "B": 24.57}
{"compound": "Cn1cc(S(=O)(=O)NCCc2ccsc2)cn1", "A": 0.4231, "B": 8.861}
{"compound": "COc1ccccc1CC1CCCN(CC(=O)N2CCOCC2)C1", "stereo": "centres unmarked", "A": -7.412, "B": 1.859}
{"compound": "O=c1oc(-c2cccs2)nn1CC1(O)CCCCC1", "A": 20.06, "B": 12.96}
{"compound": "CC(C)c1nccn1C1CCCN(C(=O)C2=NN(C)C(=O)CC2)C1", "stereo": "centres unmarked", "A": -25.84, "B": 0.8941}
{"compound": "CNCc1n[nH]c(=O)n1-c1cccc(Cl)c1Cl", "A": 4.168, "B": 20.92}
{"compound": "CCCc1nc(N(C)CCc2noc(C(C)C)n2)c2cnn(C)c2n1", "A": -11.36, "B": "5.807 & -30.4"}
{"compound": "CCNc1cc2c(nn1)CCN(C(=O)c1c(C)noc1C)C2", "A": 3.905, "B": 1.811}
{"compound": "CC(C)n1nccc1NC(=O)NCCc1nc2ccc(F)cc2n1C", "A": -7.024, "B": "111.8 & -7.874"}
{"compound": "CCc1csc(C2CCCN(C(=O)c3ccc4c(c3)OCO4)C2)n1", "stereo": "centres unmarked", "A": 44.68, "B": 39.19}
{"compound": "CCc1c(C)nn(CCNC(=O)c2cc(C3CC3)n[nH]2)c1C", "A": -6.699, "B": 5.597}
{"compound": "CN(CCn1cccn1)S(=O)(=O)c1cccc(F)c1C#N", "A": -10.43, "B": -5.518}
{"compound": "O=C(NCc1ccccn1)NCC(O)c1ccccc1C(F)(F)F", "stereo": "centres unmarked", "A": 7.224, "B": 7.028}
{"compound": "NCC(=O)N1CCCC(O)(CN2CCN(c3ccccc3)CC2)CC1", "stereo": "centres unmarked", "A": -16.88, "B": 1.358}
{"compound": "O=C(CN1CC(n2cccn2)C1)NCCCN1CCCC1=O", "A": -32.49, "B": "-42.5 & -0.9242"}
{"compound": "Cc1cccc(N2N=C(C(=O)NC(C)Cc3ccco3)CCC2=O)c1", "stereo": "centres unmarked", "A": -3.092, "B": 31.77}
{"compound": "CC(=O)c1cccc(NC(=O)NCCc2nnc[nH]2)c1", "A": -16.01, "B": "-19.11 & -3.925"}
{"compound": "Cn1nc(C2CCNC2)c2c(C(=O)NCC(F)(F)F)cc(C3CC3)nc21", "stereo": "centres unmarked", "A": 7.998, "B": 28.1}
{"compound": "CCn1ccnc1CN(C)c1cc(N(C)C)ncn1", "A": -9.968, "B": "-4.925 & 1.12"}
{"compound": "CCc1nnc(CNCC2CCCN2c2cccnn2)o1", "stereo": "centres unmarked", "A": -3.711, "B": -1.205}
{"compound": "CC(C#N)CN(C)Cc1nc2c(cnn2C)c(=O)[nH]1", "stereo": "centres unmarked", "A": 6.361, "B": 17.31}
{"compound": "CCCN1CCCN(C(=O)c2ccc(Oc3cccnc3)cc2)CC1", "A": -9.239, "B": -27.11}
{"compound": "O=C(c1ccc2c(c1)CCO2)N1CCN(c2ccc(Cl)cn2)CC1", "A": 19.55, "B": -1.496}

Once more, the final 3:

{"compound": "CC(C#N)CN(C)Cc1nc2c(cnn2C)c(=O)[nH]1", "stereo": "centres unmarked", "A": 6.361, "B": 17.31}
{"compound": "CCCN1CCCN(C(=O)c2ccc(Oc3cccnc3)cc2)CC1", "A": -9.239, "B": -27.11}
{"compound": "O=C(c1ccc2c(c1)CCO2)N1CCN(c2ccc(Cl)cn2)CC1", "A": 19.55, "B": -1.496}

From ChEMBL document CHEMBL3988442, “University of Dundee, Small-Polar-MMV Screening Library” (2021).